These are yes or no findings as the source states them, for the method shown. Binding seen in cells or lysates may run through a third protein. A yes stands for co-enrichment or nearness to the bait. Other partners may have been found. Sequences can lack the tags named with a protein.
B1: Orm2 (protein, UniProt Q06144 1-216)
chain: MIDRTKNESPAFEESPLTPNVSNLKPFPSQSNKISTPVTDHRRRRSSSVISHVEQETFEDENDQQMLPNMNATWVDQRGAWLIHIVVIVLLRLFYSLFGSTPKWTWTLTNMTYIIGFYIMFHLVKGTPFDFNGGAYDNLTMWEQINDETLYTPTRKFLLIVPIVLFLISNQYYRNDMTLFLSNLAVTVLIGVVPKLGITHRLRISIPGITGRAQIS
B2: Tsc3 (small regulatory subunit of serine palmitoyltransferase) (protein, UniProt Q3E790 1-80)
chain: MTQHKSSMVYIPTTKEAKRRNGKSEGILNTIEEVVEKLYWTYYIHLPFYLMASFDSFFLHVFFLTIFSLSFFGILKYCFL
B3: Sac1 (phosphatidylinositol-4-phosphate phosphatase) (protein, UniProt P32368 1-623)
chain: MTGPIVYVQNADGIFFKLAEGKGTNDAVIHLANQDQGVRVLGAEEFPVQGEVVKIASLMGFIKLKLNRYAIIANTVEETGRFNGHVFYRVLQHSIVSTKFNSRIDSEEAEYIKLLELHLKNSTFYFSYTYDLTNSLQRNEKVGPAASWKTADERFFWNHYLTEDLRNFAHQDPRIDSFIQPVIYGYAKTVDAVLNATPIVLGLITRRSIFRAGTRYFRRGVDKDGNVGNFNETEQILLAENPESEKIHVFSFLQTRGSVPIYWAEINNLKYKPNLVLGENSLDATKKHFDQQKELYGDNYLVNLVNQKGHELPVKEGYESVVHALNDPKIHYVYFDFHHECRKMQWHRVKLLIDHLEKLGLSNEDFFHKVIDSNGNTVEIVNEQHSVVRTNCMDCLDRTNVVQSVLAQWVLQKEFESADVVATGSTWEDNAPLLTSYQNLWADNADAVSVAYSGTGALKTDFTRTGKRTRLGAFNDFLNSASRYYQNNWTDGPRQDSYDLFLGGFRPHTASIKSPFPDRRPVYIQLIPMIICAALTVLGATIFFPKDRFTSSKNLLYFAGASIVLALSTKFMFKNGIQFVNWPKLVDVGFLVVHQTHDKEQQFKGLKYAQSPKFSKPDPLKRD
B4: Lcb1 (serine palmitoyltransferase catalytic subunit) (protein, UniProt P25045 1-558)
chain: MAHIPEVLPKSIPIPAFIVTTSSYLWYYFNLVLTQIPGGQFIVSYIKKSHHDDPYRTTVEIGLILYGIIYYLSKPQQKKSLQAQKPNLSPQEIDALIEDWEPEPLVDPSATDEQSWRVAKTPVTMEMPIQNHITITRNNLQEKYTNVFNLASNNFLQLSATEPVKEVVKTTIKNYGVGACGPAGFYGNQDVHYTLEYDLAQFFGTQGSVLYGQDFCAAPSVLPAFTKRGDVIVADDQVSLPVQNALQLSRSTVYYFNHNDMNSLECLLNELTEQEKLEKLPAIPRKFIVTEGIFHNSGDLAPLPELTKLKNKYKFRLFVDETFSIGVLGATGRGLSEHFNMDRATAIDITVGSMATALGSTGGFVLGDSVMCLHQRIGSNAYCFSACLPAYTVTSVSKVLKLMDSNNDAVQTLQKLSKSLHDSFASDDSLRSYVIVTSSPVSAVLHLQLTPAYRSRKFGYTCEQLFETMSALQKKSQTNKFIEPYEEEEKFLQSIVDHALINYNVLITRNTIVLKQETLPIVPSLKICCNAAMSPEELKNACESVKQSILACCQESNK

Sequences of proteins named here, by UniProt entry; tags and fusion partners are left off.
UniProt P53224: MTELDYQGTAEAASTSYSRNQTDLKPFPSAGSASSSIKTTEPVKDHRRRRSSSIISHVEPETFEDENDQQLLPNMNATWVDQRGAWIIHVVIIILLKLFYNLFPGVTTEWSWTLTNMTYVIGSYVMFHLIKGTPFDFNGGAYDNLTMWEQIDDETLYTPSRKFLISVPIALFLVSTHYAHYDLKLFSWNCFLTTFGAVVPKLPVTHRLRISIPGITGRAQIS

Molecular target: T1, SPOT-ALFA-tagged Lcb2 (serine palmitoyltransferase catalytic subunit Lcb2) (yeast) (UniProt P40970)
T1 sequence: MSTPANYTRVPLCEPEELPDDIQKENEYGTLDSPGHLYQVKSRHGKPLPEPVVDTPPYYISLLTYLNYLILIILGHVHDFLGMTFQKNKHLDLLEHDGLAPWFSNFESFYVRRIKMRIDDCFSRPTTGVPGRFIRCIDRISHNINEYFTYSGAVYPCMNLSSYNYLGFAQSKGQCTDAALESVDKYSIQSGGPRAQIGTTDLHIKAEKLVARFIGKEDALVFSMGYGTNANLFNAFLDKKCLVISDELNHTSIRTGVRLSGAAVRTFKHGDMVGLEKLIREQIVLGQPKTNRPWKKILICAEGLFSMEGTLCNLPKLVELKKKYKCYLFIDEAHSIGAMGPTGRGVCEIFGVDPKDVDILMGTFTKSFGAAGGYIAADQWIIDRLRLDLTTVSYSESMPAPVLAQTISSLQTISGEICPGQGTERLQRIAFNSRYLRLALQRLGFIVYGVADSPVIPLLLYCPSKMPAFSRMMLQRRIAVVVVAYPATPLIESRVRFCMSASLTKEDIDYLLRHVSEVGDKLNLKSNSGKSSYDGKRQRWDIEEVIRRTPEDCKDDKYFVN
Assay: affinity purification with mass spectrometry

binding, binds:
Orm1 (from UniProt P53224 1-222), B1, B2, B3, B4

— doi:10.1101/2023.03.29.534722
